Data as given in PubChem BioAssay AID686943 (Drosophila RNAi Screening Center, 2013).

Aim: 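Search across the genome for regulators of signalling from receptor tyrosine kinase to ERK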 (primary screen)
System: Drosophila S2R+ haemocyte-like cells expressing YFP-tagged ERK (Rolled)
Reagent: long dsRNA against Drosophila genes
Conditions: insulin stimulation versus unstimulated cells; dose and duration not given
Read-out: 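Per-plate z-scores of phospho-ERK immunostaining normalised to YFP-tagged ERK, measured with and without insulin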
Direction: replicate 1, z-score of dpERK with insulin and replicate 2, z-score of dpERK with insulin: higher = more active ERK per ERK-YFP after insulin
The screen tested about 23,000 reagents; shown is a random part of those that have a named target and a result. 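Extra replicates exist only for a retested subset of genes; insulin dose and duration not given; both raised and lowered dpERK matter.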 Reagents against one gene are numbered here. Not all columns of the deposit are shown. Not stated in the record: the amount of reagent, the time to read-out.

gene,reagent,"replicate 1, z-score of dpERK with insulin","replicate 2, z-score of dpERK with insulin"
PPO3,1,0.01,-0.76
CG31760,1,-0.69,-0.37
CG34106,1,0.11,0.09
CG12679,1,-1.29,-1.36
CG11700,1,0,-0.76
CG18281,1,0.31,0.23
CG13689,1,0.16,-0.7
csw,1,-2,-3.78
gprs,1,0.26,0.58
SecS,1,0.64,-0.89
CG4168,1,0.68,-0.19
CG4168,2,1.23,1.27
CG4168,3,0.47,0.31
CG4168,4,0.63,-0.36
CG4168,5,-0.11,0.67
Jon44E,1,0.44,0.94
OstDelta,1,0.29,0.4
Ndfip,1,0.69,0.18
CR33319,1,2.25,0.7
CG40245 (retired record),1,-1.17,-1.02
CG10597,1,0.06,0.82
CG5969,1,0.05,-0.38
Ugt35C1,1,-0.03,-0.07
Acp29AB,1,-1.11,-0.84
CG8405,1,0.79,-0.7
CG8405,2,-0.5,-0.82
Plod,1,0.38,0.11
Plod,2,-0.22,0.08
CG1227,1,-0.66,-0.16
CG33775,1,-1.66,-0.89
CG8671,1,0.05,-0.21
CG8671,2,-1.05,-0.21
CG14506,1,-0.18,-1.49
LUBEL,1,-0.02,-0.47
Spps,1,-0.1,0.23
Nmdmc,1,0.04,0.04
Rdh1,1,0.04,0.26
CG16953,1,-0.01,-0.67
mRpL39,1,0.03,-0.03

In a second layout: results already given
gene | reagent | replicate 1, z-score of dpERK with insulin | replicate 2, z-score of dpERK with insulin
Plod | 2 | -0.22 | 0.08
CG1227 | 1 | -0.66 | -0.16
CG33775 | 1 | -1.66 | -0.89
CG8671 | 1 | 0.05 | -0.21
CG8671 | 2 | -1.05 | -0.21
CG14506 | 1 | -0.18 | -1.49
LUBEL | 1 | -0.02 | -0.47
